Some of the results follow. Most entries show no effect beyond the scatter of the controls.

Chains of the proteins cited; added tags and fusions are not shown. Lines headed by an entry give the natural chain unless they say otherwise; changes in a name come on top.
UniProt P49454: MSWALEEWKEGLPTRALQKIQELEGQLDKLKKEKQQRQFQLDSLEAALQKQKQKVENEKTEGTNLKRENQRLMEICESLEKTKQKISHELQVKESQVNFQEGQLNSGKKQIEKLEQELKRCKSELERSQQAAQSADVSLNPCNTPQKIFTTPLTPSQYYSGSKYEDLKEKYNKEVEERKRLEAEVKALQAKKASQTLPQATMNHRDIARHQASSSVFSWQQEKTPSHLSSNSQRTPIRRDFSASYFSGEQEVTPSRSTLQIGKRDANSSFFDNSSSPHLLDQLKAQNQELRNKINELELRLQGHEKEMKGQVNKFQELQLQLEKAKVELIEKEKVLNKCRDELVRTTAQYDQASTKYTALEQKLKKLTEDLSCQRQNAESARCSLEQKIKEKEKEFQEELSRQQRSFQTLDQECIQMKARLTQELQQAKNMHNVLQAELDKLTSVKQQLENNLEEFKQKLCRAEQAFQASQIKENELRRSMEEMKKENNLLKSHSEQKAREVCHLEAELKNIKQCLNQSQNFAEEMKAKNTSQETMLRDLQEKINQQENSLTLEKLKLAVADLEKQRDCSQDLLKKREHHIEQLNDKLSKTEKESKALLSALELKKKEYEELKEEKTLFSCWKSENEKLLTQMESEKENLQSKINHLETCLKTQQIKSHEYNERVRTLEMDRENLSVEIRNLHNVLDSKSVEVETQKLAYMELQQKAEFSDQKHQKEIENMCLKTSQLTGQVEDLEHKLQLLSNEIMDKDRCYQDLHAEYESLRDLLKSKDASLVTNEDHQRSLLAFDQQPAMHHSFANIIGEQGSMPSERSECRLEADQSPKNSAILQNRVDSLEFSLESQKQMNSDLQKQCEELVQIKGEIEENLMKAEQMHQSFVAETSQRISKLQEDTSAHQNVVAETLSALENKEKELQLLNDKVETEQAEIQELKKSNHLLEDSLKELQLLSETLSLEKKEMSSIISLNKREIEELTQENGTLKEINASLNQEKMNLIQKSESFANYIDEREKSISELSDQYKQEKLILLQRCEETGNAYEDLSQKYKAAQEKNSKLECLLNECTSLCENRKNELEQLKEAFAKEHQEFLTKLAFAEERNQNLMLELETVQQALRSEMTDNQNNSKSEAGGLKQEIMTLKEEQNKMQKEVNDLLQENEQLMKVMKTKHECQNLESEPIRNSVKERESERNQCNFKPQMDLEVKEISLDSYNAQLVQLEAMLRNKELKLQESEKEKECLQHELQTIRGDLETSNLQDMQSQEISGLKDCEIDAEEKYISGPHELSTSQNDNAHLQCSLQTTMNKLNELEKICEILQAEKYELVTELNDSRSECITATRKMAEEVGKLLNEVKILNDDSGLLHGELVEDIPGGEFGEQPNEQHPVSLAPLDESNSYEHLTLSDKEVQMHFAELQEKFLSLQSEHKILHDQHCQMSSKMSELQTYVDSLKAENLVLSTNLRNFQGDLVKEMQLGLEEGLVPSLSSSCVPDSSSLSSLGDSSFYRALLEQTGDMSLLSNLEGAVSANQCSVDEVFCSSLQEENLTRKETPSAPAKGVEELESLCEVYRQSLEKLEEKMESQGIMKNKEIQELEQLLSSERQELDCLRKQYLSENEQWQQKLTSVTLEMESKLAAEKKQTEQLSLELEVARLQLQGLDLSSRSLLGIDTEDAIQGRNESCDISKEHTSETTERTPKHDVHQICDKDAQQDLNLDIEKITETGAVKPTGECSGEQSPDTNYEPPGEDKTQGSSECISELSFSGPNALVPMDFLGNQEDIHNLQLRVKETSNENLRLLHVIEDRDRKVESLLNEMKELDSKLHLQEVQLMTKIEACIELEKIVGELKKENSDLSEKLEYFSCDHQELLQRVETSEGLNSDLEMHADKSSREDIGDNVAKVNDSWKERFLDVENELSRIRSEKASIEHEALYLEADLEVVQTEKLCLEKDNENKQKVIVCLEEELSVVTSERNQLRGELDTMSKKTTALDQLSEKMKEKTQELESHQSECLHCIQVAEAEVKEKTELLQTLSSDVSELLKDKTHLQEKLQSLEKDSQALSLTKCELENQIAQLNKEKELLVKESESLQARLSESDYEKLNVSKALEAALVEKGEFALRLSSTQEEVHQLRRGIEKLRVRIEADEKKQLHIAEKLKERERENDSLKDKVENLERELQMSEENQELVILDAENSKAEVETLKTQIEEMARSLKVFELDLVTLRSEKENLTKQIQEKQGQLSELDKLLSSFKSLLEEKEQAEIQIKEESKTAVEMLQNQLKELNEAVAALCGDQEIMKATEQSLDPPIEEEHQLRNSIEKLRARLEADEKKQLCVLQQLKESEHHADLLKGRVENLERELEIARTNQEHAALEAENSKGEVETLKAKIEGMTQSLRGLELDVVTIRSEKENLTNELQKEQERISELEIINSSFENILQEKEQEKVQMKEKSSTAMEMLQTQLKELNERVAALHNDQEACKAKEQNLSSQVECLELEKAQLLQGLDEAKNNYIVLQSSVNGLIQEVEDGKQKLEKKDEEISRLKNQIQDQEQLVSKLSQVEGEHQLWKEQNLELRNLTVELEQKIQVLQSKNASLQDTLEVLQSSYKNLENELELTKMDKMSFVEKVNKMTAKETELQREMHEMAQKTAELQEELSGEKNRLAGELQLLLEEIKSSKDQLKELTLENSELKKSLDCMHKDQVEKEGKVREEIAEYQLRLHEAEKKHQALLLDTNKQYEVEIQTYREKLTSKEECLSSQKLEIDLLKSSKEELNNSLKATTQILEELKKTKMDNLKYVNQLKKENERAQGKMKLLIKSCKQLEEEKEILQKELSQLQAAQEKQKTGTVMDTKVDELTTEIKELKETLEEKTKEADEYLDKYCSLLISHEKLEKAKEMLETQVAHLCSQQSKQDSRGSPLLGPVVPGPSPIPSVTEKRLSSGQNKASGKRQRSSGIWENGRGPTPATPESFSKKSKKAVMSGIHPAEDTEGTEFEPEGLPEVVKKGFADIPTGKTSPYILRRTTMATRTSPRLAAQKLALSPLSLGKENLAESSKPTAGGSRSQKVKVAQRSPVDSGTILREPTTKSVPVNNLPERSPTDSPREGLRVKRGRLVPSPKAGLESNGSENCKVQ
UniProt P53804: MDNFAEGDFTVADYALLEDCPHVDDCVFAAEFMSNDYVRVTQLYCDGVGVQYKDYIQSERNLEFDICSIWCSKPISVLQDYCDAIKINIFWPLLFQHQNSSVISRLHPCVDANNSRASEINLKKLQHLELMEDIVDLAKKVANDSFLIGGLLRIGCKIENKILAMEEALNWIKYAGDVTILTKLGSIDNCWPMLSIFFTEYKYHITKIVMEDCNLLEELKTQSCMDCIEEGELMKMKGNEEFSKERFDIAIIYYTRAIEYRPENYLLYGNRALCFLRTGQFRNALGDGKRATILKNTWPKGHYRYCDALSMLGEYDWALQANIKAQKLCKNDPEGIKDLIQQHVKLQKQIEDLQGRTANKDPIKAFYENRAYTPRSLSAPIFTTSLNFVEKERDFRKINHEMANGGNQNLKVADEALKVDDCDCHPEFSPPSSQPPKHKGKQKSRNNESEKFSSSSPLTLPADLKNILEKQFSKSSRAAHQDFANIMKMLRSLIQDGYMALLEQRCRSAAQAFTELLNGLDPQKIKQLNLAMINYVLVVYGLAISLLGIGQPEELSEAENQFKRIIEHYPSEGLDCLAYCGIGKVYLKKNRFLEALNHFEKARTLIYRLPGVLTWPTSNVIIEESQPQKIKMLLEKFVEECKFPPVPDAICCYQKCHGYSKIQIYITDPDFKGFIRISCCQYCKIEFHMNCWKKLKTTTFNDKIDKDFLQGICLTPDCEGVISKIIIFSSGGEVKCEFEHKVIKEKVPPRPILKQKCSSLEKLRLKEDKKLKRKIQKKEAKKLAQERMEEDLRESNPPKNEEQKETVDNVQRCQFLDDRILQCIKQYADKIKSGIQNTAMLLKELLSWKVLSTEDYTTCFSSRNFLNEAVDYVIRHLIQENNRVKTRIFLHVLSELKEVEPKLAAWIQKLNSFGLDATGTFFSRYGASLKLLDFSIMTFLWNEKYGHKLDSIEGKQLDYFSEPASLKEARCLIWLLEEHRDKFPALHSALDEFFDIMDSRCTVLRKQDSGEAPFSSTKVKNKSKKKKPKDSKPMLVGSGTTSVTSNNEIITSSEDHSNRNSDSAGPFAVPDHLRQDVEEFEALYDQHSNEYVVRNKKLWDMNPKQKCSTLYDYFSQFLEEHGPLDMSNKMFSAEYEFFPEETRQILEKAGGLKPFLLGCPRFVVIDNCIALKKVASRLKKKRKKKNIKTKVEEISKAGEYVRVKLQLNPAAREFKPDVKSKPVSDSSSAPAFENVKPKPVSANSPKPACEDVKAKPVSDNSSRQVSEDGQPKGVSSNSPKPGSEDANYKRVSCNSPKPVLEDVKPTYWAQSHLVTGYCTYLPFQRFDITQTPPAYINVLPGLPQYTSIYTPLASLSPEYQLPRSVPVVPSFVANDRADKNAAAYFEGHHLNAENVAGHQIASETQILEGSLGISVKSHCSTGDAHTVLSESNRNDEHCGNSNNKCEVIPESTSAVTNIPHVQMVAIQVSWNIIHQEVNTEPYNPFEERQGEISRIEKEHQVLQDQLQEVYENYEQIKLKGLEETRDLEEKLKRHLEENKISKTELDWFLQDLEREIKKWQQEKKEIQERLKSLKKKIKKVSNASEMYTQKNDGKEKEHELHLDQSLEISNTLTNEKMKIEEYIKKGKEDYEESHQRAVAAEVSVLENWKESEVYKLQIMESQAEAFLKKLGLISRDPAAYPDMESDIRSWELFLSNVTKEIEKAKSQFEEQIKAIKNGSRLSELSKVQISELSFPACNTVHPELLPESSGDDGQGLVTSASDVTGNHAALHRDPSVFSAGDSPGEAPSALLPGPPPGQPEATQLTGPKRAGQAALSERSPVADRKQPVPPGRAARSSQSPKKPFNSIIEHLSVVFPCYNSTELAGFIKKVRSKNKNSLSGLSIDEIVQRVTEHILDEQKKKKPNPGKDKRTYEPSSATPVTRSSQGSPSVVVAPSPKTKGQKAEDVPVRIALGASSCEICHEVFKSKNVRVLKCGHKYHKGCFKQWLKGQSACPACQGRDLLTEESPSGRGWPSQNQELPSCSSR
UniProt P50549: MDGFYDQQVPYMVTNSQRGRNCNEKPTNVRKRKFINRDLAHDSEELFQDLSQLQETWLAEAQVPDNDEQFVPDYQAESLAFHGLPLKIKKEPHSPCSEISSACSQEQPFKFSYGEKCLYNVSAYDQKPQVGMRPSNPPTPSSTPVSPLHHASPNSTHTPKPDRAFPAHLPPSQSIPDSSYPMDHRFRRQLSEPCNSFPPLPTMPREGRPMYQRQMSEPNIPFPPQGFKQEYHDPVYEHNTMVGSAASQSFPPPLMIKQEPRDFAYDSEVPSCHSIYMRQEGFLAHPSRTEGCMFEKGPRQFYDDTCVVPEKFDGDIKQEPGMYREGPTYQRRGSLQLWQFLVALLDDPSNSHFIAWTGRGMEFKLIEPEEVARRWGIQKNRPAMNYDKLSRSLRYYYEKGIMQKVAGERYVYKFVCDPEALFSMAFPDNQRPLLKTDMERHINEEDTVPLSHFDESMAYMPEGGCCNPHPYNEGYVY
UniProt P51149, whole entry: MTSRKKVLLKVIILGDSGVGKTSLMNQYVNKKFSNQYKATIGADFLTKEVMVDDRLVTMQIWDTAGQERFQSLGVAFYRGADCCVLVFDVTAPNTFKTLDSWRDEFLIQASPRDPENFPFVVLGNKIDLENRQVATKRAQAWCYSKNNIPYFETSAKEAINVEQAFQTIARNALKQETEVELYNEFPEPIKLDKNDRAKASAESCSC
UniProt P53801: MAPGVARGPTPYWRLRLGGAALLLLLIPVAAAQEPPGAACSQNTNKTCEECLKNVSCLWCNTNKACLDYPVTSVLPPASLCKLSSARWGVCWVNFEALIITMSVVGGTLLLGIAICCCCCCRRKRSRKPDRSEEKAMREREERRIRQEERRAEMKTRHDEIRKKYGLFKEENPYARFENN
UniProt P53609, whole entry, looked up: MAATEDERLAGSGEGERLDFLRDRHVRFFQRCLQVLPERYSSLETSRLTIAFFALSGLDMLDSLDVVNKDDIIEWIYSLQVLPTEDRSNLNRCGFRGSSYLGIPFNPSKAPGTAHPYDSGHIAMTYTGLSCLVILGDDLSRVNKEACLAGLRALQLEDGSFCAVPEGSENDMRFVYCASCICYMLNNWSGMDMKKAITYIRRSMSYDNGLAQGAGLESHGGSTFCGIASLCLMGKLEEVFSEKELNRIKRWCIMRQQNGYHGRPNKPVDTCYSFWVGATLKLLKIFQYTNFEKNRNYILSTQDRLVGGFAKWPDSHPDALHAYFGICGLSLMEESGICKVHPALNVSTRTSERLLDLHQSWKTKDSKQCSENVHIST
UniProt P51151: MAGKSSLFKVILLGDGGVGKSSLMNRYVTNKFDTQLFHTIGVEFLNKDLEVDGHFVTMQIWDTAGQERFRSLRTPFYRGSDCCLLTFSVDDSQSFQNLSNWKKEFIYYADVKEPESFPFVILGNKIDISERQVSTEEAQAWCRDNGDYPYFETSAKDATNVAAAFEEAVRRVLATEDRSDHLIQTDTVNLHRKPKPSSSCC

Compound in the assay: Cc1nc(Nc2ncc(C(=O)Nc3c(C)cccc3Cl)s2)cc(N2CCN(CCO)CC2)n1 [dasatinib]
As to the kind of experiment: log2 fold change of tryptic peptide abundance, ligand vs vehicle (limited proteolysis) (log2 ratio); higher = more trypsin-susceptible (destabilized). To be noted: ligand concentration: 5 uM; sample: K562 cleared lysate.
On to “PMS2 (peptide sequence: QDQSPSLR, peptide start residue: 400) (UniProt P54278)”, for which the log2 fold change was -0.095. On to “CENPF (peptide sequence: TKHECQNLESEPIR, peptide start residue: 1162) (UniProt P49454)”, for which the log2 fold change is -0.27. As to “TTC3 (peptide sequence: TANKDPIK, peptide start residue: 357) (UniProt P53804)”, the log2 fold change was -0.427. Regarding “ETV1 (peptide sequence: TEGCMFEKGPR, peptide start residue: 289) (UniProt P50549)”, the log2 fold change is -0.0724. Under “SRP9 (peptide sequence: VTDDLVCLVYKTDQAQDVKK, peptide start residue: 42) (UniProt P49458)” stands 0.414. Under “UniProt P51149 (peptide sequence: EVMVDDR, peptide start residue: 49)” stands 0.184; under “PTTG1IP (peptide sequence: KYGLFKEENPYAR, peptide start residue: 164) (UniProt P53801)”, -0.261; under “SUB1 (peptide sequence: QVAPEKPVKK, peptide start residue: 30) (UniProt P53999)”, 0.0532. Under “MNAT1 (peptide sequence: EEQLQQILK, peptide start residue: 168) (UniProt P51948)” stands 0.359; under “HNRNPA3 (peptide sequence: WGTLTDCVVMRDPQTK, peptide start residue: 58) (UniProt P51991)”, 0.202; under “TUFM (peptide sequence: KYEEIDNAPEERAR, peptide start residue: 94) (UniProt P49411)”, 0.974. In the case of “RGS3 (peptide sequence: NGGSMHHLSLFFTGHR, peptide start residue: 989) (UniProt P49796)”, the log2 fold change came to 0.47.

For the target “RPS5 (peptide sequence: QAVDVSPLR, peptide start residue: 137) (UniProt P46782)”, the log2 fold change was 0.156. To “UniProt P49674 (peptide sequence: HPQLHIESK, peptide start residue: 46)” belongs -0.748.

Turning to “NOP2 (peptide sequence: QQLPEQPFEK, peptide start residue: 758) (UniProt P46087)”, the log2 fold change turned out to be 0.0814. Take “PAPOLA (peptide sequence: SSGNAATSGNAATKIPTPIVGVKR, peptide start residue: 628) (UniProt P51003)”: the log2 fold change was found to be 0.216.

For the target “LRBA (peptide sequence: SFGQTPSQLLIEPHPPR, peptide start residue: 2473) (UniProt P50851)”, the log2 fold change is -0.972. Consider “QARS (peptide sequence: LGYFSVDPDSHQGK, peptide start residue: 746) (UniProt P47897)”, for which the log2 fold change was -0.217.

“CAPZB (peptide sequence: SGSGTMNLGGSLTR, peptide start residue: 182) (UniProt P47756)”: the log2 fold change was -0.236. To “MRPL19 (peptide sequence: TDPLKFQIERK, peptide start residue: 87) (UniProt P49406)” belongs -0.0903; to “SMARCA2 (peptide sequence: GQPLPETLQLAVQGKR, peptide start residue: 195) (UniProt P51531)”, -0.284.

For “NUBP1 (peptide sequence: KVKLPIIGVVENMSGFICPK, peptide start residue: 218) (UniProt P53384)”, the log2 fold change was 0.725. Under “HDGF (peptide sequence: KSCVEEPEPEPEAAEGDGDKK, peptide start residue: 106) (UniProt P51858)” stands 0.0799; under “NUP153 (peptide sequence: VTDNKCIACQAAK, peptide start residue: 673) (UniProt P49790)”, 0.682; under “MAPKAPK2 (peptide sequence: VDYEQIK, peptide start residue: 365) (UniProt P49137)”, 0.283. Consider “RPL21 (peptide sequence: INVRIEHIKHSK, peptide start residue: 89) (UniProt P46778)”, for which the log2 fold change came to 0.468. To “CAMLG (peptide sequence: IMGFHRPGSGAEEESQTK, peptide start residue: 47) (UniProt P49069)” belongs -0.273.

In the case of “ST13 (peptide sequence: EWVESMGGK, peptide start residue: 33) (UniProt P50502)”, the log2 fold change was -0.163. To “IQGAP1 (peptide sequence: DRLQYFR, peptide start residue: 827) (UniProt P46940)” belongs 0.302; to “PLCD1 (peptide sequence: VQHKPKEDK, peptide start residue: 477) (UniProt P51178)”, -0.371.

Consider “PGGT1B (peptide sequence: QCSENVHIST, peptide start residue: 368) (UniProt P53609)”, for which the log2 fold change is 0.00546. “SERPINB8 (peptide sequence: KYTRGMLFK, peptide start residue: 178) (UniProt P50452)”: the log2 fold change was determined as 0.0544.

“ATN1 (peptide sequence: TLSEYARPHVMSPGNR, peptide start residue: 885) (UniProt P54259)”: the log2 fold change was -0.0977.

For the target “TERF1 (peptide sequence: QAWLWEEDKNLR, peptide start residue: 381) (UniProt P54274)”, the log2 fold change is -0.161. For “RAB9A (peptide sequence: SDHLIQTDTVNLHR, peptide start residue: 179) (UniProt P51151)”, the log2 fold change is -0.25. On to “LMAN1 (peptide sequence: DIDNLVQR, peptide start residue: 449) (UniProt P49257)”, for which the log2 fold change was -0.211. To “UniProt P53680 (peptide sequence: HTNFVEFR, peptide start residue: 46)” belongs -0.151.

(Values after the supplement of paper PMC12819154, “High-throughput peptide-centric local stability assay extends protein–ligand identification to membrane proteins, tissues and bacteria” (Nature Structural & Molecular Biology, 2025).)
